Reference: paper PMC3605359, “Expression, purification and biochemical characterization of Schizosaccharomyces pombe Mcm4, 6 and 7” (BMC Biochemistry, 2013)
Results are given in words; binding and its absence hold for the method and conditions named. Some entries that bind do so weakly or less than the wild type.

Chains of the proteins cited; added tags and fusions are not shown.
UniProt P49731: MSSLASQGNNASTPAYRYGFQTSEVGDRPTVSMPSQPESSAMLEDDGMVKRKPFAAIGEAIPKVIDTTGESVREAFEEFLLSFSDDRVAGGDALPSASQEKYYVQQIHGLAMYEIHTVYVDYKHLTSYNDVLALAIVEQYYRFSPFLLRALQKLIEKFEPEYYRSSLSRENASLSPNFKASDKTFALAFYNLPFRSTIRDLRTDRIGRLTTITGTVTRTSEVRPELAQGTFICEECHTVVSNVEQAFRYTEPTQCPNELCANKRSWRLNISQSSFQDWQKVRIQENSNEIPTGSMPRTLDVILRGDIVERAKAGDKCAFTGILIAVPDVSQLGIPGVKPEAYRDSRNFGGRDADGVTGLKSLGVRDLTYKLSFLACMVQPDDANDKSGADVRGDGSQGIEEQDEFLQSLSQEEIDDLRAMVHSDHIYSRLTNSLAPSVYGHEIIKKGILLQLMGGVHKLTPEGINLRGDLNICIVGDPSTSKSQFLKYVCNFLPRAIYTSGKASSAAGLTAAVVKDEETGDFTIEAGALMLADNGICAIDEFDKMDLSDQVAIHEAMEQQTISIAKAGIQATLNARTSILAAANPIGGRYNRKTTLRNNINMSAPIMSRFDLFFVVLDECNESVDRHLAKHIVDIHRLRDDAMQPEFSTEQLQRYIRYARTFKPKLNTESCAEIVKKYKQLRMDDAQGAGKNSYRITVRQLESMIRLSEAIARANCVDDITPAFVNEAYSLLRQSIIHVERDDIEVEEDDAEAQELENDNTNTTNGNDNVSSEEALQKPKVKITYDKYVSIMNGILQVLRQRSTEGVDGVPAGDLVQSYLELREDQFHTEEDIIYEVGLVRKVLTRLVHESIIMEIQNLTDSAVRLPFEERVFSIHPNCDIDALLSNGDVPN

B1: Mcm4 of the Mcm4/6/7 hexamer expressed and purified from insect cells (protein, UniProt P29458 1-911)
chain: MSSSQQSGRANELRTPGRANSSSREAVDSSPLFFPASSPGSTRLTTPRTTARTPLASSPLLFESSSPGPNIPQSSRSHLLSQRNDLFLDSSSQRTPRSTRRGDIHSSVQMSTPSRRREVDPQRPGVSTPSSLLFSGSDALTFSQAHPSSEVADDTVRVIWGTNVSIQESIASFRGFLRGFKKKYRPEYRNELMPPPDAEQLVYIEALRNMRIMGLEILNLDVQDLKHYPPTKKLYHQLYSYPQEIIPIMDQTIKDVMLDLLGTNPPEDVLNDIELKIYKIRPFNLEKCINMRDLNPGDIDKLISIKGLVLRCTPVIPDMKQAFFRCSVCGHCVTVEIDRGRIAEPIKCPREVCGATNAMQLIHNRSEFADKQVIKLQETPDVVPDGQTPHSVSLCVYDELVDSARAGDRIEVTGIFRCVPVRLNPRMRTVKSLFKTYVDVVHIKKQDKRRLGTDPSTLESDIAEDAALQIDEVRKISDEEVEKIQQVSKRDDIYDILSRSLAPSIYEMDDVKKGLLLQLFGGTNKSFHKGASPRYRGDINILMCGDPSTSKSQILKYVHKIAPRGVYTSGKGSSAVGLTAYITRDQDTKQLVLESGALVLSDGGICCIDEFDKMSDATRSILHEVMEQQTVTVAKAGIITTLNARTSILASANPIGSKYNPDLPVTKNIDLPPTLLSRFDLVYLILDRVDETLDRKLANHIVSMYMEDTPEHATDMEVFSVEFLTSYITYARNNINPVISEEAAKELVNAYVGMRKLGEDVRASEKRITATTRQLESMIRLSEAHAKMHLRNVVEVGDVLEAARLIKTAIKDYATDPATGKISLDLIYVNERETLVPEDMVKELANLISNLTVGGKTMLVSQLLTRFREQSSTRLDASDFEACLGALERRGRIKVITSAGHRIVRSIAQTD
B2: Mcm7 of the Mcm4/6/7 hexamer expressed and purified from insect cells (protein, UniProt O75001 1-760)
chain: MALPTIDLKIPEYEECQHKITDFLSHFKQEQVQDGQQNQDISMSDAGDEPFLKSKYMDILQKISNRESNVINVDLNDLYEFDPSDTQLLHNIESNAKRFVELFSQCADALMPPPTVEINYRNEVLDVIMQQRVQRNENIDPEHKGFPPELTRGYDLYFRPVTRNKKPFSVRDLRGENLGSLLTVRGIVTRTSDVKPSLTVNAYTCDRCGYEVFQEIRQKTFLPMSECPSDECKKNDAKGQLFMSTRASKFLPFQEVKIQELTNQVPIGHIPRSLTVHLYGAITRSVNPGDIVDISGIFLPTPYTGFRAMRAGLLTDTYLECHYVSQIIKNYTNIEKTPQSEAAIAELNQGGNVYEKLAKSIAPEIYGHEDVKKALLLLLVGGVTKELGDGMRIRGDINICLTGDPGVAKSQLLKYISKVAPRGVYTTGRGSSGVGLTAAVMRDPVTDEMVLEGGALVLADNGICCIDEFDKMDESDRTAIHEVMEQQTISISKAGITTTLNARTSILAAANPLYGRYNPKVAPIHNINLPAALLSRFDILFLILDTPSRETDEHLAQHVTYVHMHNEQPKMDFEPLDPNMIRHYISSARQYRPVVPKDVCDYVTGAYVQLRQNQKRDEANERQFAHTTPRTLLAILRMGQALARLRFSNRVEIGDVDEALRLMSVSKSSLYDDLDPSSHDTTITSKIYKIIRDMLNSIPDVEGNERSLTLRAIRERVLAKGFTEDHLINTIQEYTDLGVLLTTNNGQTIMFLDPDLHMEN

Tests used:
[1] = target: T1, Mcm7 of the Mcm4/6/7 hexamer expressed and purified from insect cells (UniProt O75001); experiment: SEC; gel filtration profile of Mcm4/6/7 hexamers expressed and purified from insect cells; both purified
T1 sequence: B2 chain

[2] = target: Mcm6 of the Mcm4/6/7 hexamer expressed and purified from insect cells (UniProt P49731); experiment: as above

Binder	binding [1]	binding [2]
B1	binds	binds
B2	–	binds
